Measurements from publication PMC5389796.
Residue numbers refer to the chain shown, from its start. No constants are given. Whether binding was seen depends on the method and setting. Binding seen in cells or lysates may run through a third protein. Binding can be weak; no strength is given. Tags and fused reporters may be left off the sequences shown.

Legend:
Test in all cases: co-IP; HEK293 cells co-transfected 48 hrs; RIPA lysate; anti-FLAG M2 with protein A/G magnetic beads overnight at 4°C; eluted with FLAG peptide; blot with anti-V5
TALK-1 T3-FLAG (human) = target: T1, TALK-1 T3-FLAG (human) (UniProt Q96T55)
T1 sequence: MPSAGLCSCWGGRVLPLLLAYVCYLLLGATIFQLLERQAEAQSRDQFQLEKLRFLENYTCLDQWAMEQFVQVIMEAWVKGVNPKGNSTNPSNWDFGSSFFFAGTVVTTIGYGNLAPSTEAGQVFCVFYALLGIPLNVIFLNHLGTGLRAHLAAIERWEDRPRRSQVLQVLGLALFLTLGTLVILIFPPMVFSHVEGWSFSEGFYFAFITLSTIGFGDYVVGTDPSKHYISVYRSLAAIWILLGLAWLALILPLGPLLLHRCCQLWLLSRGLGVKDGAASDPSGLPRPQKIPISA

[1] = target: T2, TALK-1 T3 Δ259-294-FLAG (human) (UniProt Q96T55)
T2 sequence: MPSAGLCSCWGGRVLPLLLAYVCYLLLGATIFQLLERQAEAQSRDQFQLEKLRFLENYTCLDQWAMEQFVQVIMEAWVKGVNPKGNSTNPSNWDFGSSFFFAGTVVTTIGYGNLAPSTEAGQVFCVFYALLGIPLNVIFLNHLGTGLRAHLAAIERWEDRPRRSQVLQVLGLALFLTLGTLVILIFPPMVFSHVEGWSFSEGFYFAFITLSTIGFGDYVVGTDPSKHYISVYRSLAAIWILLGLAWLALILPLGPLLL

[2] = target: T3, TALK-1 T3 A277E (rs1535500)-FLAG (human) (UniProt Q96T55)
T3 sequence: T1 sequence with A277E

[3] = target: T4, TALK-1 transcript variant 2 (T2)-FLAG (human) (UniProt Q96T55)
T4 sequence: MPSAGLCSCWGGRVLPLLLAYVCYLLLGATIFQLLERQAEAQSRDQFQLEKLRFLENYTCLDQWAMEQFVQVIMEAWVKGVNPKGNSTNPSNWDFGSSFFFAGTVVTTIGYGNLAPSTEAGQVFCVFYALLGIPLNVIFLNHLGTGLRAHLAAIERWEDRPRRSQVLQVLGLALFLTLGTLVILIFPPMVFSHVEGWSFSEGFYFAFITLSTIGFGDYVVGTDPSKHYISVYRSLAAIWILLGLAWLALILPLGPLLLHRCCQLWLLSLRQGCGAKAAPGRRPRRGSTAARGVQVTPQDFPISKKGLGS

Measured: binding

iOPN-V5 (human)
binds: all assays above
